The shares of active, inactive and inconclusive entries below differ from those in the screen. Potencies beside an inconclusive call are fits to weak or partial responses and may not hold up. Activity calls are given as the source filed them. The call rests on the fitted dose curve; in most records, active means well fitted activation curve with a large enough effect; inconclusive means small, poorly fitted or top-dose-only effect, or another doubt; inactive means no such curve, though single readings can be large or run the other way.
Biological target: Rap guanine nucleotide exchange factor 3 (Homo sapiens) (UniProt O95398)
Assay: Counterscreen qHTS for agonist of cAMP-regulated guanine nucleotide exchange factor 3 (EPAC1) (AID 1645889); further: nearly all actives have a fitted effect of over 40% in size; on activation: % of control where 0% means no effect
Conditions: EPAC1 Rap1B-BODIPY-GDP exchange, fluorescence; activation: at 154 µM (top of the series) unless noted
Method in brief: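 Rap1B–BODIPY-GDP (250 nM) with 50 uM GDP; compounds pin-transferred to 9.74 nM–152 uM final (activator) or from 7.32 nM upwards (inhibitor). Fluorescence Ex/Em 480/540 nm read at 5 and 30 min, then after adding cAMP or buffer, at room temperature.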
Potency means the concentration at half of the fitted maximal effect.

Structure (SMILES) | Potency | activation
CC(Oc1ccc(Br)cc1)C(=O)NCC(c1cccs1)N1CCOCC1 (stereo not given) | inactive | –
COc1ccc(C(=O)Nc2ccc(-c3cc4ccccc4oc3=O)c(C)c2)cc1Br | inconclusive: 10 µM [activator, full curve] | –
CC(=O)N1N=C2c3ccccc3CCC2C1c1cccs1 (stereo not given) | – | inconclusive: 24.3% [activator] [at 30.8 µM]
Cc1cccc(/C(N)=N/OC(=O)Cc2cccc3ccccc23)c1 | – | inactive: -1.93% [at 30.8 µM]
O=C(CCN1C(=O)/C(=C/c2cccs2)SC1=S)Nc1ccc(C(=O)O)c(O)c1 | – | inconclusive: 53.9% [activator] [at 30.8 µM]
COc1c(Cl)cc(Cl)cc1CNc1ccc(S(N)(=O)=O)cc1 | inconclusive: 14.1 µM [activator, single point] | –
CCOC(=O)c1ccccc1NC(=O)CSc1nccn1Cc1ccco1 | inactive | –
COc1cc2c(c(OC)c1OC)C(c1ccc3c(c1)OCO3)CC(=O)O2 (stereo not given) | – | inactive: 18.7% [at 30.8 µM]
CN1CCN(C(CNC(=O)c2ccc(Br)o2)c2ccc(F)cc2)CC1 (stereo not given) | – | inconclusive: 36.3% [activator] [at 30.8 µM]
CCc1noc(C)c1C(=O)N1CCCSC1=Nc1ccccc1C(C)C | inconclusive: 0.398 µM [activator, full curve, poor fit] | –
Cc1ccc(-c2csc(N=C(N)N)n2)cc1 | – | inactive: 9.63% [at 30.8 µM]
Nc1nnc(-c2cccc(F)c2)s1 | inactive | –
CC(=O)N(C(C)=O)N1C(=O)c2cccc3c(N4CCOCC4)ccc(c23)C1=O | inconclusive: 20 µM [activator, partial curve, poor fit] | –
COc1cc2c(-c3ccc4c(c3)OCO4)c(-c3ccsc3)oc(=O)c2cc1OC | inconclusive: 0.891 µM [activator, partial curve, poor fit] | –
COc1ccc(S(=O)(=O)N2CCCC2)cc1C(C)C | – | inactive: 2.24% [at 30.8 µM]

4 of the compounds above, tab-delimited:
Structure (SMILES)	Potency	activation
COc1cc2c(c(OC)c1OC)C(c1ccc3c(c1)OCO3)CC(=O)O2 (stereo not given)	–	inactive: 18.7% [at 30.8 µM]
Nc1nnc(-c2cccc(F)c2)s1	inactive	–
CC(=O)N(C(C)=O)N1C(=O)c2cccc3c(N4CCOCC4)ccc(c23)C1=O	inconclusive: 20 µM [activator, partial curve, poor fit]	–
COc1ccc(S(=O)(=O)N2CCCC2)cc1C(C)C	–	inactive: 2.24% [at 30.8 µM]

— PubChem BioAssay (NCATS)
